# Results are given in words; binding and its absence hold for the method and conditions named. In cells and extracts the contact can be indirect. Some binding calls cover weakened binding; strength is not graded here. For some of these results: Where a sequence is shown, tags or fusion partners need not be part of it.
# By UniProt entry, the sequences of proteins in these tests, tags left out.
# UniProt Q99612: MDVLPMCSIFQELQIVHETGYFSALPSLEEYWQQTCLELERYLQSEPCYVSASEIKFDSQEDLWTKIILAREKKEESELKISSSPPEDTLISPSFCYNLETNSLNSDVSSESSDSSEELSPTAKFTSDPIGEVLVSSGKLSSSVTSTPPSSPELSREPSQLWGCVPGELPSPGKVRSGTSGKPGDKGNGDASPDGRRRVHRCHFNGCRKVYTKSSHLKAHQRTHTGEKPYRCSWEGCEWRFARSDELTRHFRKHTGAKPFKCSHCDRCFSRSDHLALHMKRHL
# UniProt Q9Y6J9: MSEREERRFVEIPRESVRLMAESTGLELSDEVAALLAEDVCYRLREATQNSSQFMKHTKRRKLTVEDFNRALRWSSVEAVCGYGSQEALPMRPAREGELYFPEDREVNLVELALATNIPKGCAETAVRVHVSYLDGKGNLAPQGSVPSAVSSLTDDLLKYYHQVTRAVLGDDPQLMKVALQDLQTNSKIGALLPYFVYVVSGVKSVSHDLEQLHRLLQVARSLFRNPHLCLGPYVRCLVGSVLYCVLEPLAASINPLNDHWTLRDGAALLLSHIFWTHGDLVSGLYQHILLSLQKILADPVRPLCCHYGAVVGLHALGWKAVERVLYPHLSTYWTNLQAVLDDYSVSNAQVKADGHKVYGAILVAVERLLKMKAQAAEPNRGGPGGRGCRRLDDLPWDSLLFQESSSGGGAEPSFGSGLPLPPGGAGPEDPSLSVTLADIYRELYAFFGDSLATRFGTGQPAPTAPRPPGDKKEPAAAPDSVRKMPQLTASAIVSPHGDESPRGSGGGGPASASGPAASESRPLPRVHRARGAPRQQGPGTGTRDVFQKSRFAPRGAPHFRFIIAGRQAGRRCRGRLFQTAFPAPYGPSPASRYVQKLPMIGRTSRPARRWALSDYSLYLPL
# UniProt Q09472: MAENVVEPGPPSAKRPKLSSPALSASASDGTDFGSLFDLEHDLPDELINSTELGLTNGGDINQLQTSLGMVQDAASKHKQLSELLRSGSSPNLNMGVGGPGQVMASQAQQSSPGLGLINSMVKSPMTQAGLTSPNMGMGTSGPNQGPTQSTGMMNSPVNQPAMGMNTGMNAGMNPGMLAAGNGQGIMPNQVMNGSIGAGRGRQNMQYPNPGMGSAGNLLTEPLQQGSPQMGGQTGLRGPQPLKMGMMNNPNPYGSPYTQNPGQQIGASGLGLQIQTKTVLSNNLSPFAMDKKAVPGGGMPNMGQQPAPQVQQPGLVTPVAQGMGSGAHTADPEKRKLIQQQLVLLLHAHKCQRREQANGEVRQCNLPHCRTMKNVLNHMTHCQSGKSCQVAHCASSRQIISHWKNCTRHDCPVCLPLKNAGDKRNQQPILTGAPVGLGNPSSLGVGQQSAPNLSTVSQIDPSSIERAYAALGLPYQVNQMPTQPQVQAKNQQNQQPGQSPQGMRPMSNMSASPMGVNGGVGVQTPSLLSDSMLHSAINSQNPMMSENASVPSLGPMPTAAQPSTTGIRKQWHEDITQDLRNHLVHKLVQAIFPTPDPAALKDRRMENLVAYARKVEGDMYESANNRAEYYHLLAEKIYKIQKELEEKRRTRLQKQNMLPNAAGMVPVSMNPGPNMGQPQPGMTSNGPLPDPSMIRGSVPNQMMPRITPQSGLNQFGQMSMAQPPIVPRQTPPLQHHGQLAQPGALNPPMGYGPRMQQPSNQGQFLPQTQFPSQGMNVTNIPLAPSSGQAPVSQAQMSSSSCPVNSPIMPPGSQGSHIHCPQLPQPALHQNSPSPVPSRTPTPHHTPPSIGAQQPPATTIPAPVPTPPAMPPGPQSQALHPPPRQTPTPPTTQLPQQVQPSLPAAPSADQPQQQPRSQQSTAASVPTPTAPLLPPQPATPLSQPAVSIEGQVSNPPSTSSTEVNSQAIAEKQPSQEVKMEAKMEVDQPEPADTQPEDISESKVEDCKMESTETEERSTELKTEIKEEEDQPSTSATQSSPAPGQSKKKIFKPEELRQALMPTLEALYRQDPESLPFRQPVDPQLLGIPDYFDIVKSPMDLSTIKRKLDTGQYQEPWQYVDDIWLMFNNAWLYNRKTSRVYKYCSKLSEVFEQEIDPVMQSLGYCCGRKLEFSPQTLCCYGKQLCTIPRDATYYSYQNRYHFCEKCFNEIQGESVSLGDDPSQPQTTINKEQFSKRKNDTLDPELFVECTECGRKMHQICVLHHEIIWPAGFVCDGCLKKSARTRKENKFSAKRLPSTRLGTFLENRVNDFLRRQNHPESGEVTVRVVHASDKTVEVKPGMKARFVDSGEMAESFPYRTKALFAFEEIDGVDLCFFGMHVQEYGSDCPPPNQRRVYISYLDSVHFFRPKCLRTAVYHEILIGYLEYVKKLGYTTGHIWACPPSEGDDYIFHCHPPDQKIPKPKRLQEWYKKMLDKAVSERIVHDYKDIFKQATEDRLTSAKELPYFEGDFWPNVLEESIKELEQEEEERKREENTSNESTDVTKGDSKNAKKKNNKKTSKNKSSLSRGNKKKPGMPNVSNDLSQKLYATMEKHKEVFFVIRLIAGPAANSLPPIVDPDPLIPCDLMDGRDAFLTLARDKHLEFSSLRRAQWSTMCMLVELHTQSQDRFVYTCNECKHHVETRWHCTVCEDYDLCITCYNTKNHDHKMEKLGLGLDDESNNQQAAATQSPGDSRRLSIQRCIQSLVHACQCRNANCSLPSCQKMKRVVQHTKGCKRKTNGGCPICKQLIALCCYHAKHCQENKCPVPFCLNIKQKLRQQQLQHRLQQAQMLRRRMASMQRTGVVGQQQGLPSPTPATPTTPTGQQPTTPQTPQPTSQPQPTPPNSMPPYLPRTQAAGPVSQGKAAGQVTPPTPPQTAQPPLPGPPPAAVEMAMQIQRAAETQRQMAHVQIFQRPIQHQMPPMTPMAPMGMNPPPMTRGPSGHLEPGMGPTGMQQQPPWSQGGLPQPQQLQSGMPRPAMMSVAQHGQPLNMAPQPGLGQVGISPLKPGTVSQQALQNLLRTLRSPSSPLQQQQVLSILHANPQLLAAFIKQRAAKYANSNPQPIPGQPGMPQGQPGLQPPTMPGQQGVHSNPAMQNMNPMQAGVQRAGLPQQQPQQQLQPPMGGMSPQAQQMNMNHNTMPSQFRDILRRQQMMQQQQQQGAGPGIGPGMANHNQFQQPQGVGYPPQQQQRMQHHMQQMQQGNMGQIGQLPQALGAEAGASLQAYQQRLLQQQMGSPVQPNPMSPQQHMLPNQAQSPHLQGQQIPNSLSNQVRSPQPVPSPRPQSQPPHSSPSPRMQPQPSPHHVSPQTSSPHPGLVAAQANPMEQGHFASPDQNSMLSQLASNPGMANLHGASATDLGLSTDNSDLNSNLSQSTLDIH
# UniProt Q92831: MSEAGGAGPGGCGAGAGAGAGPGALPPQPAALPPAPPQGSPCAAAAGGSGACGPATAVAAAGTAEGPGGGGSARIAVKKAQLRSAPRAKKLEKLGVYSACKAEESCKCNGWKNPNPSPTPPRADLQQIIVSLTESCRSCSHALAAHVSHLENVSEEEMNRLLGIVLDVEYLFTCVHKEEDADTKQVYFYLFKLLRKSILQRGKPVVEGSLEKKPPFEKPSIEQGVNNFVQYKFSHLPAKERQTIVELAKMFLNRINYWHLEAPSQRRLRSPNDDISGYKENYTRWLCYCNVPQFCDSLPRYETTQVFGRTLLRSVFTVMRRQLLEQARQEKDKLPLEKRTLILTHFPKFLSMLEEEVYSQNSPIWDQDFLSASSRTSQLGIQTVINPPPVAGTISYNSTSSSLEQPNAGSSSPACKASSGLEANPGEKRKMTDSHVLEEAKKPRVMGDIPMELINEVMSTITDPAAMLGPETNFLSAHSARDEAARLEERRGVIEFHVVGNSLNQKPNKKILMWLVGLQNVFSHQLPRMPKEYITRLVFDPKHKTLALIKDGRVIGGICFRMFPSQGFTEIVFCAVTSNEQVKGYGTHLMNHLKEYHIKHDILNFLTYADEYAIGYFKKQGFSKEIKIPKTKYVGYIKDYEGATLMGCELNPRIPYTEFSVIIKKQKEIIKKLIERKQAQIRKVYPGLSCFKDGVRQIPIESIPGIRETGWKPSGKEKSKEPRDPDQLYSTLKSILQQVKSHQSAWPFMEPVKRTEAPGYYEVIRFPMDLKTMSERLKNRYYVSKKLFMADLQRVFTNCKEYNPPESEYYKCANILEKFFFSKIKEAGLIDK
# Assays:
# Flag-FOSL2 = target: T1, Flag-FOSL2 (UniProt P15408); experiment: co-IP; HCT15-FR cells transfected with Flag-FOSL2; proteins immunoprecipitated with a Flag monoclonal antibody
# T1 sequence: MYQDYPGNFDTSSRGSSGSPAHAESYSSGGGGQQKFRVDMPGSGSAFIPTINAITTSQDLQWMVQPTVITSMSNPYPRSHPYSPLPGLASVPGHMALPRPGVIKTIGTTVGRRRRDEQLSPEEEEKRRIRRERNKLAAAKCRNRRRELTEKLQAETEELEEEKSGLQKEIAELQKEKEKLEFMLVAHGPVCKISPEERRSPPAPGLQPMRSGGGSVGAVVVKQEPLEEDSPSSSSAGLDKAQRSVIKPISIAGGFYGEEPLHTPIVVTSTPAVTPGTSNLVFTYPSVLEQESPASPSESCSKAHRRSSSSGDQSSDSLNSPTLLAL
# [1] = target: KLF6 (human (endogenous in HCT15-FR)) (UniProt Q99612); experiment: co-IP; co-immunoprecipitation as previously described (ref. 30), HCT15-FR cells; which partner was precipitated is not told
binding (Flag-FOSL2),binding [1],Substance
no binding,,KLF6 (from UniProt Q99612 1-283)
,binds,TAF6L (from UniProt Q9Y6J9 1-622)
,binds,p300 (from UniProt Q09472 1-2414)
,binds,p300/CBP-associated factor (PCAF) (from UniProt Q92831 1-832)

# Reference: PMC11958781
